In paper PMC11904943 one finds binding data, which are given here for one molecule.

The test deals with T1, Flag-RBM12 (human) (UniProt Q9NTZ6).
T1 sequence: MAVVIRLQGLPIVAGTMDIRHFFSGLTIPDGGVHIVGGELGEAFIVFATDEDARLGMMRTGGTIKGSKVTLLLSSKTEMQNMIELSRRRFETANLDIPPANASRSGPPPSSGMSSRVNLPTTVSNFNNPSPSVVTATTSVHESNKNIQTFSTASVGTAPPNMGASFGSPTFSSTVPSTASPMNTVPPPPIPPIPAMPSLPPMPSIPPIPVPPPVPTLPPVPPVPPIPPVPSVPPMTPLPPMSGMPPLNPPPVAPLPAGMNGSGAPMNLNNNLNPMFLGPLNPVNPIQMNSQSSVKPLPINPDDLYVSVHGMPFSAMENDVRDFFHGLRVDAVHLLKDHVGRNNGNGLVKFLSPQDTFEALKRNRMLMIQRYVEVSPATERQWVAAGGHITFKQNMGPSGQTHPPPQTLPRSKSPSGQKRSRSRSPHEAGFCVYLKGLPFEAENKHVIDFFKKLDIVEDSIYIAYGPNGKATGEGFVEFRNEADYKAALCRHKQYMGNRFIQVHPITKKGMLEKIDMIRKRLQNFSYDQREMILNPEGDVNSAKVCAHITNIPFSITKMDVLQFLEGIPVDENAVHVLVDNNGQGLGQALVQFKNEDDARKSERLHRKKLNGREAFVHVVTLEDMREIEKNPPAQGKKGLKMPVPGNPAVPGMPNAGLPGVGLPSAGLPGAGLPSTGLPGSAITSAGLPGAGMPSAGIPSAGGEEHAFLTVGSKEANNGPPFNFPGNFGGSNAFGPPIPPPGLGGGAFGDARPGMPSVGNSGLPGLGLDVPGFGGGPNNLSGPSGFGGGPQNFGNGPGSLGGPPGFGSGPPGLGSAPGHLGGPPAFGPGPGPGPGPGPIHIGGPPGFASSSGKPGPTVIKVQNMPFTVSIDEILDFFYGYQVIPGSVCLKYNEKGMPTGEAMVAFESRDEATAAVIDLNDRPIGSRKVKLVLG
The test is described as follows: co-IP; HEK293T cells transfected with HA-WAC or HA-WACΔCC and Flag-RBM12; IP with anti-Flag M2 agarose beads, western blot with anti-HA. For orientation: In western blotting, separated proteins are transferred to a membrane and probed.

No constants are given. Whether binding was seen depends on the method and setting. Binding seen in cells or lysates may run through a third protein. Some results given as binding are weak or reduced against the parent protein; the word gives no strength. Where a sequence is shown, tags or fusion partners need not be part of it.

B1: HA-tagged wild-type WAC (protein, UniProt Q9BTA9 1-647)
chain: MVMYARKQQRLSDGCHDRRGDSQPYQALKYSSKSHPSSGDHRHEKMRDAGDPSPPNKMLRRSDSPENKYSDSTGHSKAKNVHTHRVRERDGGTSYSPQENSHNHSALHSSNSHSSNPSNNPSKTSDAPYDSADDWSEHISSSGKKYYYNCRTEVSQWEKPKEWLEREQRQKEANKMAVNSFPKDRDYRREVMQATATSGFASGMEDKHSSDASSLLPQNILSQTSRHNDRDYRLPRAETHSSSTPVQHPIKPVVHPTATPSTVPSSPFTLQSDHQPKKSFDANGASTLSKLPTPTSSVPAQKTERKESTSGDKPVSHSCTTPSTSSASGLNPTSAPPTSASAVPVSPVPQSPIPPLLQDPNLLRQLLPALQATLQLNNSNVDISKINEVLTAAVTQASLQSIIHKFLTAGPSAFNITSLISQAAQLSTQAQPSNQSPMSLTSDASSPRSYVSPRISTPQTNTVPIKPLISTPPVSSQPKVSTPVVKQGPVSQSATQQPVTADKQQGHEPVSPRSLQRSSSQRSPSPGPNHTSNSSNASNATVVPQNSSARSTCSLTPALAAHFSENLIKHVQGWPADHAEKQASRLREEAHNMGTIHMSEICTELKNLRSLVRVCEIQATLREQRILFLRQQIKELEKLKNQNSFMV
With B1, the binding result is on record as “binds”.
